Experimental data from patent US20240277878A1.
Results are given in words; binding and its absence hold for the method and conditions named. Some entries that bind do so weakly or less than the wild type.

Protein sequences, listed by entry. Tags and fused reporters are not part of them. Lines headed by an entry give the natural chain unless they say otherwise; changes in a name come on top. Residues count along the entry.
UniProt Q9NZQ7, residues 19-290: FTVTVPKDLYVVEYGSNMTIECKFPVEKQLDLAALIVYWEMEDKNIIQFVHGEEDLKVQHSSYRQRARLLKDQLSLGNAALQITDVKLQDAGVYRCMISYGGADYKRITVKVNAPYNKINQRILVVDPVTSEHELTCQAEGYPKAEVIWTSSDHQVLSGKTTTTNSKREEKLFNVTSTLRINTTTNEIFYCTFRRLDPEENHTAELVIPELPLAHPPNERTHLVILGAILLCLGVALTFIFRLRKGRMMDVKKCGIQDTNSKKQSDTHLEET

How the values were obtained:
[1] = molecular target: human PD-L1 on transduced U-698-M B cell lymphoma cells (U698M-PDL1+) (human) (UniProt Q9NZQ7); assay: radioligand binding on PD-L1 transduced U-698M cells
[2] = molecular target: human PD-L1 on transduced U-698-M B cell lymphoma cells (U698M-PDL1+) (human) (UniProt Q9NZQ7); assay: static PET, PD-L1 positive versus wild-type U-698-M xenografts
[3] = molecular target: human PD-L1 on transduced U-698-M B cell lymphoma cells (U698M-PDL1+) (human) (UniProt Q9NZQ7); assay: dynamic PET, PD-L1 positive versus wild-type U-698-M xenografts
[4] = molecular target: human PD-L1 on transduced U-698-M B cell lymphoma cells (U698M-PDL1+) (human) (UniProt Q9NZQ7); assay: dynamic PET/CT, PD-L1 positive versus wild-type U-698-M xenografts
[5] = molecular target: human PD-L1 on transduced U-698-M B cell lymphoma cells (U698M-PDL1+) (human) (UniProt Q9NZQ7); assay: radioligand binding on PD-L1 transduced U-698M cells, wild-type cells as negative control
[6] = molecular target: human PD-L1 on transduced U-698-M B cell lymphoma cells (U698M-PDL1+) (human) (UniProt Q9NZQ7); assay: static PET, PD-L1 positive versus wild-type U-698-M xenografts; blocked by 9 mg/kg unlabeled Adnectin
[7] = molecular target: human PD-L1 on transduced U-698-M B cell lymphoma cells (U698M-PDL1+) (human) (UniProt Q9NZQ7); assay: SPECT/CT, PD-L1 positive versus wild-type U-698-M xenografts

Measured: binding

B1: ^68Ga-DOTA-Adnectin (A02 anti-PD-L1 Adnectin with a C-terminal PC tail, DOTA-conjugated, ^68Ga-labeled) (designed binder)
chain: GVSDVPRDLEVVAATPTSLLISWSYDGPIDRYYRITYGETGGNSPVQEFTVPPDQKTATISGLKPGVDYTITVYAVRLEEAHYNREFPISINYRTPC
modifications: maleimido-mono-amide-DOTA on the C-terminal cysteine, chelating ^68Ga
not listed: [7]
binds: all other assays above

B2: ^177Lu-Adnectin (A02 adnectin with PC tail, DOTA-conjugated, ^177Lu-labeled) (designed binder)
chain: GVSDVPRDLEVVAATPTSLLISWSYDGPIDRYYRITYGETGGNSPVQEFTVPPDQKTATISGLKPGVDYTITVYAVRLEEAHYNREFPISINYRTPC
modifications: DOTA on the C-terminal cysteine, chelating ^177Lu
binds: [7]
